PubChem BioAssay AID686938 | Drosophila RNAi Screening Center – 2013
The screen tested about 23,000 reagents; this is an unselected part of those that have a named target and a result. Over the whole deposit, 75 (0.33%) are marked active. 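Raw plate signals without normalisation; calls rest on plate z-scores that were not deposited; ratio present for only 364 wells.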 A plus sign joins genes that one reagent is predicted to hit. Not given: the dose of the treatment.

Screen: 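Fly genes required for calcium entry once internal stores are emptied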 (primary screen)
System: Drosophila S2R+ cells
Reagent: long dsRNA against Drosophila genes, about 0.25 µg dsRNA per well, roughly 10,000 cells
Timing: 5 days of knock-down before the calcium assay
Challenge: thapsigargin (SERCA pump blocker) to empty calcium stores; entry signal taken 4 min after adding it
Detection: 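Per-well fluo-4 fluorescence in two replicates, unnormalised, measured in resting cells and 4 min after store depletion by the SERCA blocker thapsigargin; ratio of the two present in few wells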
Scale: calcium entry signal: higher = stronger calcium signal after store depletion; entry to resting ratio: higher = more calcium entry relative to resting level; resting calcium signal: higher = higher resting calcium signal
Rule for the call: 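Called when the plate z-score of the entry-to-rest ratio, mean of duplicates, falls below −3; wells with low overall dye signal (Fmax z below −2) or more than five off-targets excluded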
Meaning of the calls: active = strongly reduced calcium entry; inactive = no strong reduction

Gene	DRSC id	calcium entry signal, replicate 1 (fluorescence units)	calcium entry signal, replicate 2 (fluorescence units)	entry to resting ratio	resting calcium signal, replicate 1 (fluorescence units)	resting calcium signal, replicate 2 (fluorescence units)	activity call
CG13837	DRSC14687	5.86e7	6.48e7		2.80e7	2.41e7	inactive
CG14052	DRSC17907	5.06e7	5.38e7	2.2	2.33e7	2.06e7	inactive
CG14052	DRSC18192	3.60e7	5.41e7	1.9	1.90e7	2.27e7	inactive
tRNA:Leu-CAA-2-3 (transfer RNA:Leucine-CAA 2-3)	DRSC13633	2.79e7	4.59e7		1.42e7	1.99e7	inactive
wls (wntless)	DRSC10605	3.28e7	3.22e7		1.97e7	1.28e7	inactive
Rab5	DRSC00777	6.27e7			4.10e7		active
CG5726	DRSC06946	3.73e7	3.65e7		1.78e7	1.91e7	inactive
Vamp7 (Vesicle-associated membrane protein 7)	DRSC06599	3.49e7	3.61e7		1.85e7	1.43e7	inactive
CG43439 + CG32388	DRSC08861	3.99e7	4.38e7		2.08e7	2.04e7	inactive
CG12680	DRSC17871	3.37e7	3.91e7		1.71e7	1.80e7	inactive
CG3650	DRSC04401	4.15e7	4.57e7		2.22e7	2.25e7	inactive
CG5062	DRSC18385	3.54e7	3.10e7		1.79e7	1.58e7	inactive
CG15696	DRSC15118	4.10e7	4.61e7		6.04e7	2.08e7	inactive
CG10063	DRSC09688	3.31e7	3.89e7		1.65e7	1.70e7	inactive
euc (eucalyptus)	DRSC14492	3.05e7	3.68e7		4.45e7	1.56e7	inactive
CG6867	DRSC20013	3.30e7	3.64e7		1.71e7	1.81e7	inactive
CG1598	DRSC06598	5.82e7	4.45e7		2.56e7	1.93e7	inactive
BaraC (Baramicin C)	DRSC03885	3.10e7	4.55e7		1.49e7	4.34e7	inactive
CG3548	DRSC04387	3.83e7			1.97e7		inactive
CG9445	DRSC05006	2.19e7	3.02e7		1.06e7	1.30e7	inactive
Pgm2b (Phosphoglucomutase 2b)	DRSC05978	4.29e7	4.55e7		1.82e7	2.07e7	inactive
ND6 (retired record)	DRSC21271	2.69e7	4.53e7		1.44e7	2.56e7	inactive
CG15571	DRSC18059	3.44e7	4.76e7		1.68e7	2.15e7	inactive
CG13050	DRSC09931	3.26e7	6.09e7		1.62e7	2.23e7	inactive

Reprinted from above (2 entries):
Gene	DRSC id	calcium entry signal, replicate 1 (fluorescence units)	calcium entry signal, replicate 2 (fluorescence units)	entry to resting ratio	resting calcium signal, replicate 1 (fluorescence units)	resting calcium signal, replicate 2 (fluorescence units)	activity call
CG5062	DRSC18385	3.54e7	3.10e7		1.79e7	1.58e7	inactive
CG15696	DRSC15118	4.10e7	4.61e7		6.04e7	2.08e7	inactive
